Patent US7273723B2, “Antibiotic-based gene regulation system” (priority 2001, dated 2007)
At least one compound was matched to its structure with a doubt left.

The chains behind the UniProt entries cited, without tags or fusion partners.
UniProt P04483, whole entry, added parts left off: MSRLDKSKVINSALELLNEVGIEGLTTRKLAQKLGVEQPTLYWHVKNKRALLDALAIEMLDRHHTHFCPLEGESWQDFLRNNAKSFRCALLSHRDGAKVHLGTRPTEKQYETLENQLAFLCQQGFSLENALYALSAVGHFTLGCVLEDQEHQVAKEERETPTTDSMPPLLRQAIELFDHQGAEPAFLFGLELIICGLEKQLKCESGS

How the values were obtained:
[1] = tested on: ET1 / erythromycin-responsive promoter PETR3; test: SEAP assay in CHO-Triplet42 transfected with PETR3-SEAP (pWW38); format: cell-based; details: antibiotic 2 μg/ml
Experimental: (§1) Chinese hamster ovary cells (CHO-K1, ATCC: CCL 61), and HeLa cells (ATCC: CRL-7923) as well as stable cell lines derived thereof were cultured as described before (Fussenegger et al., 1998, Nat. Biotechnol. 16,468-472) in the presence of appropriate antibiotics: G418 400 μg/ml; zeocin 100 μg/ml. Optimized CaPO4 protocols were used for high efficiency transient transfection of all cell lines (Fussenegger et al., 1998. Nat. Biotechnol. 16: 468-472). Transiently transfected cells were routinely analyzed after 48 h for CFP or SEAP expression using fluorescence microscopy and p-nitrophenolphosphate-based light absorbance timecourse, respectively, as described before (Fussenegger et al., 1998, Nat. Biotechnol. 16, 468-472; Berger et al., 1988, Gene 66, 1-10 b). For construction of stable CHO-ET1 and CHO-Triplet42 cell lines, CHO-Ki and CHO-TWIN1108 (Disclosed in PCT application no. 00/65080) were cotransfected with pWW35 and pZeoSV2 (invitrogen). CHO-ET11-SEAP was constructed by cotransfection of pWW38 and pSV2neo (Clontech) into CHO-ET11. The mixed populations were cloned using FACS-mediated single-cell-sorting (FACStar^Plus; Beckton Dickinson). […]
To analyze the relative regulatory characteristics, we evaluated induction factors (IF; ratio of maximal expression level to antibiotic-repressed expression level). […]

[2] = target: T1, tTA / tetracycline-responsive promoter PhCMV*-1 (Escherichia coli, UniProt P04483); test: SEAP assay in CHO-Triplet42 transfected with PhCMV*-1-SEAP (pMF111); format: cell-based
T1 construct: expressed in transfected cells; host or cells: CHO-Triplet42 (from CHO-TWIN1108)
Experimental: as §1, with “Dickinson). For assessment of dose-response characteristics of PETR3-regulated gene expression, CHO-ET11-SEAP were cultured at cell densities of 50,000/ml for 48 h at various EM concentrations.” for “Dickinson).”

## CN(C)[C@@H]1C(O)=C(C(N)=O)C(=O)[C@@]2(O)C(O)=C3C(=O)c4c(O)cccc4[C@@](C)(O)[C@H]3C[C@@H]12 [Tet, tetracycline]
[1]
  Antibiotic crossregulation of PETR3: only a minor repressive effect
[2]; CHO-Triplet42 + pMF111 (PhCMV*-1), antibiotic 2 μg/ml, 48 h
  SEAP activity [U/L]: 6.9 ± 0.6 U/L
[2]; tet-regulated system in CHO-Triplet42
  Induction factor (times lower expression in the presence of tet): 13
